According to the supplement of paper PMC4604168 (melanoma cell lines):
This is one part of the list. Many values rest on one well or one pass, so single values are uncertain.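 Cells were imaged in 1,536-well plates, and nuclei stained with an antibody against cleaved PARP were counted against all DNA-stained nuclei to give the apoptosis fraction. Screening doses were chosen to leave most cells alive, and resting and induced cleaved-PARP levels differ strongly between cell lines.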

test system: 501Mel; test: cleaved PARP positive nuclei fraction relative to DMSO control; melanoma cells; higher = more apoptosis; conditions: library dose: low library concentration; 72 h

Going from `CC(=O)O[C@@]12CO[C@@H]1C[C@H](O)[C@@]1(C)C(=O)[C@H](O)C3=C(C)[C@@H](OC(=O)[C@H](O)[C@@H](NC(=O)OC(C)(C)C)c4ccccc4)C[C@@](O)([C@@H](OC(=O)c4ccccc4)[C@H]21)C3(C)C` [Docetaxel] + CCCCCCCCCCCC1=C(O)C(=O)C=C(O)C1=O [Embelin] (first compound 0.0001 µM, partner dose 1.2 µM) to `CC1(C)CCC(c2ccc(Cl)cc2)=C(CN2CCN(c3ccc(C(=O)NS(=O)(=O)c4ccc(N[C@H](CCN5CCOCC5)CSc5ccccc5)c(S(=O)(=O)C(F)(F)F)c4)cc3)CC2)C1` + Cc1cc([N+](=O)[O-])ccc1NS(=O)(=O)c1cc(Cl)ccc1Cl [FH535] (first compound 0.4 µM, partner dose 1 µM), the “cleaved PARP positive nuclei fraction” value rises from 194% to 226%.

First: NC1(c2ccc(-c3nc4ccn5c(=O)[nH]nc5c4cc3-c3ccccc3)cc2)CCC1 + CC(C)CCN1c2nc(Nc3cc(F)c(O)c(F)c3)ncc2N(C)C(=O)C1C [BID1870] (first compound 0.4 µM, partner dose 0.2 µM)
Second: NC(=O)c1ccc(N(C(N)=O)c2c(F)cccc2F)nc1-c1ccc(F)cc1F + Cn1cc(/C=C2\C(=O)Nc3cccnc32)c2ccccc21 [GW441756] (first compound 0.4 µM, partner dose 0.4 µM)
The “cleaved PARP positive nuclei fraction” value of the first is higher: 88.6% for the first, 45.9% for the second.

First: CS(=O)(=O)c1ccc(C(=O)Nc2ccc(Cl)c(-c3ccccn3)c2)c(Cl)c1 [vismodegib] + CCCCCCCCCCCC1=C(O)C(=O)C=C(O)C1=O [Embelin] (first compound 1 µM, partner dose 1.2 µM)
Second: COc1ccc(C2=N[C@@H](c3ccc(Cl)cc3)[C@@H](c3ccc(Cl)cc3)N2C(=O)N2CCNC(=O)C2)c(OC(C)C)c1 [Nutlin-3] + COc1ccc(-c2ccc3c(N4CCOCC4)nc(N4C[C@@H](C)O[C@@H](C)C4)nc3n2)cc1CO [KU0063794] (first compound 0.1 µM, partner dose 0.02 µM)
The “cleaved PARP positive nuclei fraction” value of the first is higher: 84.5% for the first, 67.7% for the second.

Going from `Cn1cnc2c(F)c(Nc3ccc(Br)cc3Cl)c(C(=O)NOCCO)cc21` [selumetinib] + CC(C)CCN1c2nc(Nc3cc(F)c(O)c(F)c3)ncc2N(C)C(=O)C1C [BID1870] (first compound 0.015 µM, partner dose 0.2 µM) to `CN(c1ncccc1CNc1nc(Nc2ccc3c(c2)CC(=O)N3)ncc1C(F)(F)F)S(C)(=O)=O` + CC(C)CCN1c2nc(Nc3cc(F)c(O)c(F)c3)ncc2N(C)C(=O)C1C [BID1870] (first compound 0.08 µM, partner dose 0.2 µM), the “cleaved PARP positive nuclei fraction” value falls from 129% to 91.1%.

Compared with `CCN(CC)CCNC(=O)c1c(C)[nH]c(/C=C2\C(=O)Nc3ccc(F)cc32)c1C` [sunitinib] + Cc1cc([N+](=O)[O-])ccc1NS(=O)(=O)c1cc(Cl)ccc1Cl [FH535] (first compound 0.4 µM, partner dose 1 µM), `NC1(c2ccc(-c3nc4ccn5c(=O)[nH]nc5c4cc3-c3ccccc3)cc2)CCC1` + COC(=O)c1sccc1S(=O)(=O)Nc1ccc(Nc2ccccc2)cc1OC [GSK0660] (first compound 0.4 µM, partner dose 1 µM) is lower in “cleaved PARP positive nuclei fraction” value: 83.2% for the first, 81.1% for the second.

Compared with `Cn1sc(=O)n(Cc2ccccc2)c1=O` + COc1cc2ncnc(Nc3ccc(Oc4ccccc4)cc3)c2cc1OC [SrcI1] (first compound 0.4 µM, partner dose 2 µM), `CCN(CC)CCNC(=O)c1c(C)[nH]c(/C=C2\C(=O)Nc3ccc(F)cc32)c1C` [sunitinib] + COC(=O)c1sccc1S(=O)(=O)Nc1ccc(Nc2ccccc2)cc1OC [GSK0660] (first compound 0.4 µM, partner dose 1 µM) is lower in “cleaved PARP positive nuclei fraction” value: 238% for the first, 79.7% for the second.

For `Cn1sc(=O)n(Cc2ccccc2)c1=O` + O=C(Nc1ccccc1)c1cc([N+](=O)[O-])ccc1Cl [GW9662] (first compound 0.4 µM, partner dose 2 µM), the “cleaved PARP positive nuclei fraction” value was 137%.
For `Cn1sc(=O)n(Cc2ccccc2)c1=O` + CC(C)CCN1c2nc(Nc3cc(F)c(O)c(F)c3)ncc2N(C)C(=O)C1C [BID1870] (first compound 0.4 µM, partner dose 0.2 µM), the “cleaved PARP positive nuclei fraction” value was 37.1%.
With `Cn1sc(=O)n(Cc2ccccc2)c1=O` + COc1cc(N2CCC(N3CCN(C)CC3)CC2)ccc1Nc1ncc(Cl)c(Nc2ccccc2S(=O)(=O)C(C)C)n1 [NVP-TAE684] (first compound 0.4 µM, partner dose 0.08 µM) the “cleaved PARP positive nuclei fraction” value was 74.8%.
